Test results published in paper PMC6684519.
These are yes or no findings as the source states them, for the method shown. In cells and extracts the contact can be indirect.

Protein sequences, listed by entry. Tags and fused reporters are not part of them. Lines headed by an entry give the natural chain unless they say otherwise; changes in a name come on top.
UniProt P14780: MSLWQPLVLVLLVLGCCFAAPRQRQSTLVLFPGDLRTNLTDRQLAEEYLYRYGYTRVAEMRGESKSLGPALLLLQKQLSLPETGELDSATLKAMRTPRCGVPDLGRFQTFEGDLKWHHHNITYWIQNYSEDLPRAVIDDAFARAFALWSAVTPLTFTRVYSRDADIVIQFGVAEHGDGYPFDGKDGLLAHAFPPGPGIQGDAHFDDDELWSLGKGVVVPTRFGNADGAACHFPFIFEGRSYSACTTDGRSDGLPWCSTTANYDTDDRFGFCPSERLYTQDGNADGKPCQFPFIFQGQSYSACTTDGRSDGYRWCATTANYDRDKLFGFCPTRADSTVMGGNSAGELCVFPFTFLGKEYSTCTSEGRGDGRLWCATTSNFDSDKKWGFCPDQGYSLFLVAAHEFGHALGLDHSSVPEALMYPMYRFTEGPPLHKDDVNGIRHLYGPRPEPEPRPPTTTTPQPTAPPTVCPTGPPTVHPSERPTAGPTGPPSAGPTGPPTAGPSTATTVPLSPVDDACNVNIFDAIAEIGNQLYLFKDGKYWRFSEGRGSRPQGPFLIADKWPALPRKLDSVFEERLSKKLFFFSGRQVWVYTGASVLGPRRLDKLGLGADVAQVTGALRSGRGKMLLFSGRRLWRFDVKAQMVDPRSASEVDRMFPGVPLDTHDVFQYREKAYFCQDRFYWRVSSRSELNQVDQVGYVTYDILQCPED

Target: Hic-5 (hydrogen peroxide inducible clone-5) (human (endogenous in HCC413)) (UniProt O43294)
Experiment: co-IP; IP/western analysis of endogenous proteins in HCC413; cells untreated or treated with LZ-8 (5 μg/ml)

binding: no binding
Substance: matrix metalloproteinase 9 (MMP9) (from UniProt P14780)
